This passage reports binding results from patent US20250122304A1, “PRE-TARGETING” (Precirix N.V., priority 2022, published 2025).

Amino acid sequences for entries named in this document (tags omitted). A change or cut given only in a name is not applied to a line headed by its entry.
UniProt Q12884: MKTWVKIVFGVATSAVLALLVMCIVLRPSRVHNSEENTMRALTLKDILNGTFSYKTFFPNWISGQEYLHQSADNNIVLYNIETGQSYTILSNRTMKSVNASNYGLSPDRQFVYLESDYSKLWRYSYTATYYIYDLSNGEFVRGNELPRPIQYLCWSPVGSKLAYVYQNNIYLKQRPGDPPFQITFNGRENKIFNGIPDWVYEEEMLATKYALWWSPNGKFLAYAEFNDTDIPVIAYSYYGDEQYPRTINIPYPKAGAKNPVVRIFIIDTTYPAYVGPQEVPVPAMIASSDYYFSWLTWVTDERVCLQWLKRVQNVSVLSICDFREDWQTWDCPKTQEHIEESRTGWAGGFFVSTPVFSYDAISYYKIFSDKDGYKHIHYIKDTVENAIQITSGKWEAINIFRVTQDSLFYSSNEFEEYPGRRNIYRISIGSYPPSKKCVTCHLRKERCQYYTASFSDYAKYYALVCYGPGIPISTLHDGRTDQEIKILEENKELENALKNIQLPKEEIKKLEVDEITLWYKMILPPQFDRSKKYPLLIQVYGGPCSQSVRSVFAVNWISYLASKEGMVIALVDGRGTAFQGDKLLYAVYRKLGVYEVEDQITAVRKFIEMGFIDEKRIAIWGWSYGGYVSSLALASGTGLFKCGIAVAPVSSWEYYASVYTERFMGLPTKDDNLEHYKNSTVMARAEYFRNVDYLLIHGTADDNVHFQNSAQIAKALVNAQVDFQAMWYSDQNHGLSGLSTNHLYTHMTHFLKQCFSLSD

Results are given in words; binding and its absence hold for the method and conditions named. Some results given as binding are weak or reduced against the parent protein; the word gives no strength.

This experiment concerns the target human fibroblast activation protein (FAP) (human) (UniProt Q12884). The experiment is described as follows: BLI (Octet).

B1: VHH8 (VHH)
VHH: QVQLQESGGGTVQPGGSLRLSCAASGISVSIASMAWYRQAPGKQRELVAGIISGGSTNYADSVKGRFTISRDNAKKVVLLQMNSLKPEDTAVYYCNTYPPFVGPGATATWGQGTQVTVSS
notes: Anti-FAP VHH, tested before TCO conjugation; also called unconjugated VHH8
For the molecule B1, the binding entry is listed as “binds”.

B2: TCO-VHH8 (VHH)
VHH: B1 VHH
modifications: trans-cyclooctene (TCO) conjugated via TCO-NHS; site(s) and number not stated
notes: also called TCO conjugated VHH8; VHH8 post conjugation
As to B2, the binding entry is “binds”.

B3: VHH7 (VHH)
VHH: QVQLQESGGGLVQAGGSLRLSCTASGTFSGRNAMAWYRQAPGKRRELVAGIRSDDSTNYVDSVKGRFTISRDNAKNTVYLQMNSLRPEDTAVYYCNLWPPVIGAGFGSWGQGTQVTVSS
notes: Anti-FAP VHH, tested before TCO conjugation; also called unconjugated VHH7
Consider B3, for which the binding entry was “binds”.

B4: TCO-VHH7 (VHH)
VHH: B3 VHH
modifications: trans-cyclooctene (TCO) conjugated via TCO-NHS; site(s) and number not stated
notes: also called TCO conjugated VHH7; VHH7 post conjugation
B4: the binding result is given as “binds”.

B5: VHH9 (VHH)
VHH: QVQLQESGGGLVQSGGSLRLSCVASGSISSINAMGWYRQAPGNKREWVAGITSGGSTNYADAVLGRFSIFRDNPKNTVYLQMNSLKPEDTAVYYCNTWPPSTFGSWGQGTQVTVSS
notes: Anti-FAP VHH, tested before TCO conjugation; also called unconjugated VHH9
As to B5, the binding entry was “binds”.

B6: TCO-VHH9 (VHH)
VHH: B5 VHH
modifications: trans-cyclooctene (TCO) conjugated via TCO-NHS; site(s) and number not stated
notes: also called TCO conjugated VHH9; VHH9 post conjugation
For B6, the binding entry was “binds”.
